Measurements reported in PubChem BioAssay AID1259282 (Sanger Institute, 2017).
Assay: 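Kinase knock-downs that work with targeted colorectal cancer drugs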 (primary screen). System: DIFI human colorectal cancer cell line. Reagent: siRNA pool against human genes. Treatment: anchor drug at a mild dose (BYL719 1 µM, cetuximab 5 µg/ml, trametinib 10 nM) or DMSO vehicle; exposure time not given. Detection: 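Robust z-score and replicate-mean viability versus non-targeting pool without drug, plus a synergy score for each low-dose anchor drug (BYL719, cetuximab, trametinib)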. Direction: robust z-score, knock-down alone: higher = more viable cells than typical knock-down; viability, knock-down alone: higher = more viable cells; synergy score with trametinib and synergy score with cetuximab and synergy score with BYL719: higher = stronger combined killing with drug. Call rule: 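a knock-down is called essential if its DMSO robust z-score is under -3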. Meaning of the calls: active = essential (knock-down alone, z below -3); inactive = not essential.
The whole screen tested 794 reagents; this is an unselected part. 11 of them (1.4%) count as active. 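Calls flag knock-downs that lower viability without drug; drug synergy appears only in the synergy scores; exposure time not stated.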 Viability is capped at 1. Not given: the amount of reagent, the time to read-out.

gene knocked down,PubChem SID,"robust z-score, knock-down alone","viability, knock-down alone (fraction of control)",synergy score with trametinib,synergy score with cetuximab,synergy score with BYL719,Call
MAP4K1,SID56478699,0.698,0.998,0.0286,-0.0246,-0.0631,inactive
ATR,SID135620635,0.715,1,0.0339,0.0499,0.00918,inactive
CLK3,SID56478875,0.536,0.974,0.0406,0.0708,-0.255,inactive
PIK3R4,SID135620923,0.715,1,0.0924,-0.014,-0.336,inactive
CDK4,SID56478598,-0.909,0.764,0.128,-0.0711,0.00682,inactive
FGFR3,SID56478513,-0.294,0.853,-0.105,-0.222,-0.146,inactive
MAST1,SID135620865,0.715,1,-0.168,-0.081,-0.28,inactive
NEK7,SID56478729,0.715,1,-0.0766,-0.188,-0.362,inactive
ADCK5,SID56479281,-0.918,0.763,0.15,0.0424,-0.0137,inactive
AKT2,SID135620600,-1.22,0.719,0.121,0.0942,0.145,inactive
CDK6,SID56478600,0.715,1,0.119,0.104,0.0526,inactive
TLK1,SID56478782,-1.17,0.726,0.0963,0.0982,0.16,inactive
STK10,SID56478780,-0.0162,0.894,0.0733,0.173,-0.0373,inactive
PANK2,SID152147442,0.702,0.998,0.183,0.125,0.0307,inactive
ZC3H11A,SID135624155,0.715,1,0.12,-0.0234,-0.0294,inactive
PNCK,SID152151558,-0.458,0.83,-0.0455,-0.015,-0.176,inactive
HASPIN,SID152153141,0.418,0.957,0.168,0.0597,-0.117,inactive
ACVR2B,SID135620907,0.715,1,-0.00749,-0.16,-0.362,inactive
MAGI2,SID135622325,0.715,1,0.0291,0.137,-0.0484,inactive
EFNA4,SID134312013,-2.11,0.59,0.0432,-0.0443,-0.0893,inactive
CMPK1,SID56478766,0.314,0.942,0.0352,-0.0504,-0.116,inactive
CERT1,SID56479254,0.149,0.918,0.173,0.0817,-0.0413,inactive
UCK2,SID56478981,0.715,1,0.0588,0.135,-0.0798,inactive
IGF1R,SID152153009,0.715,1,-0.00676,0.082,0.0861,inactive
ULK3,SID152148646,0.715,1,-0.156,-0.0893,-0.283,inactive
KSR1,SID152156641,-0.838,0.774,0.259,0.065,0.071,inactive
HK3,SID56479104,0.715,1,0.0219,0.0246,-0.271,inactive
SNRK,SID152154333,-0.967,0.756,0.016,-0.0669,-0.0231,inactive
MAP3K2,SID135620706,0.465,0.964,-0.162,-0.13,-0.282,inactive
SPEG,SID56479185,0.715,1,-0.121,0.049,-0.136,inactive
BCOR,SID135620845,0.715,1,0.00947,0.062,-0.0777,inactive
TSKS,SID56479267,0.715,1,-0.129,-0.129,-0.177,inactive
NEK11,SID152147168,-1.16,0.727,-0.0752,0.0204,-0.077,inactive
ADK,SID56478860,0.715,1,0.0544,0.0137,-0.159,inactive

4 of these entries, reformatted:
BCOR [SID135620845]: robust z-score, knock-down alone = 0.715; viability, knock-down alone (fraction of control) = 1; synergy score with trametinib = 0.00947; synergy score with cetuximab = 0.062; synergy score with BYL719 = -0.0777; Call = inactive
TSKS [SID56479267]: robust z-score, knock-down alone = 0.715; viability, knock-down alone (fraction of control) = 1; synergy score with trametinib = -0.129; synergy score with cetuximab = -0.129; synergy score with BYL719 = -0.177; Call = inactive
NEK11 [SID152147168]: robust z-score, knock-down alone = -1.16; viability, knock-down alone (fraction of control) = 0.727; synergy score with trametinib = -0.0752; synergy score with cetuximab = 0.0204; synergy score with BYL719 = -0.077; Call = inactive
ADK [SID56478860]: robust z-score, knock-down alone = 0.715; viability, knock-down alone (fraction of control) = 1; synergy score with trametinib = 0.0544; synergy score with cetuximab = 0.0137; synergy score with BYL719 = -0.159; Call = inactive
